Test results taken from paper PMC8290545.

Target: GST-tagged EVH1 domain of UNC-34 (C. elegans)
Test: pull-down; GST-UNC-34 EVH1 as bait (200 pmol) on 20 µL GSH-Sepharose beads, 200 to 2,000 pmol prey in 1 mL; 50 or 100 mM NaCl, 10 mM HEPES pH 7.0, 5% glycerol, 5 mM 2-mercaptoethanol, 0.05% Triton X-100; 4 °C, 30 min; three washes; eluted with glutathione; SDS-PAGE, Coomassie blue; both purified

B1: MBP-tagged full-length Abi (protein, UniProt Q10929 1-469)
chain: MSVNDLQELIERRIPDNRAQLETSHANLQQVAAYCEDNYIQSNNKSAALEESKKFAIQALASVAYQINKMVTDLHDMLALQTDKVNSLTNQVQYVSQVVDVHKEKLARREIGSLTTNKTLFKQPKIIAPAIPDEKQRYQRTPIDFSVLDGIGHGVRTSDPPRAAPISRATSSISGSSPSQFHNESPAYGVYAGERTATLGRTMRPYAPSIAPSDYRLPQVTPQSESRIGRQMSHGSEFGDHMSGGGGSGSQHGSSDYNSIYQPDRYGTIRAGGRTTVDGSFSIPRLSSAQSSAGGPESPTFPLPPPAMNYTGYVAPGSVVQQQQQQQMQQQNYGTIRKSTVNRHDLPPPPNSLLTGMSSRMPTQDDMDDLPPPPESVGGSSAYGVFAGRTESYSSSQPPSLFDTSAGWMPNEYLEKVRVLYDYDAAKEDELTLRENAIVYVLKKNDDDWYEGVLDGVTGLFPGNYVVPV
B1 was tested, and the binding was “binds”.

Results are given in words; binding and its absence hold for the method and conditions named. Binding can be weak; no strength is given. Sequences can lack the tags named with a protein.
